Experimental data taken from the supplement of paper PMC4962491.
± gives the standard deviation of the averaged measurements. The entries are a selection whose mix differs from that of the whole data set. This data set is noisy: repeats of one test often differ as much as different tests do.

Tested on: FaDu
Assay: mitochondrial oxygen consumption rate normalised to cell number, Z score over the library; higher = higher oxygen consumption (negative = OCR reduction)
Settings: treatment time 24 h, assay medium: 5 mM galactose, 5 mM pyruvate, 4 mM glutamine
Method: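 Primary screen: FaDu cells were incubated 24 h with Pharmakon 1600 / TDI oncology set compounds at 2 or 10 uM. Mitochondrial-specific OCR (basal minus 2 uM antimycin A) was measured on a Seahorse XF96 in assay medium with 5 mM galactose, 5 mM pyruvate and 4 mM glutamine, then corrected for Hoechst cell number and expressed as a Z score […]. Compounds that cut cell number by >66% were excluded. Two repeats.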

Row | SMILES | mitochondrial oxygen consumption rate normalised (2 µM) | mitochondrial oxygen consumption rate normalised (10 µM)
1 | CC(=O)OCC(=O)[C@@]1(O)CC[C@H]2[C@@H]3CCC4=CC(=O)CC[C@]4(C)[C@H]3[C@@H](O)C[C@@]21C | -0.429 ± 1.2 | –
2 | CC(C)c1c(C(=O)Nc2ccccc2)c(-c2ccccc2)c(-c2ccc(F)cc2)n1CC[C@@H](O)C[C@@H](O)CC(=O)O | -0.714 ± 0.29 | –
3 | Cc1ncc(C[n+]2csc(CCO)c2C)c(N)n1 | -0.142 ± 0.0069 | 1.53 ± 0.67
4 | CCCCCCCCCCCCCCCC(=O)OC/C=C(C)/C=C/C=C(C)/C=C/C1=C(C)CCCC1(C)C | 1.13 ± 1.9 | –
5 | C=CC(N)CCC(=O)O (stereo unspecified) | -0.583 ± 0.42 | –
6 | NS(=O)(=O)c1cc(C2(O)NC(=O)c3ccccc32)ccc1Cl (stereo unspecified) | 0.0587 ± 0.64 | –
7 | CC(=O)OCC(=O)[C@@]1(O)CC[C@H]2[C@@H]3CCC4=CC(=O)CC[C@]4(C)[C@@]3(F)[C@@H](O)C[C@@]21C | -0.823 ± 0.11 | –
8 | O=C(O)CCCCCCCC(=O)O | -0.378 ± 0.25 | –
9 | Cc1ccc(C(=O)c2ccc(CC(=O)O)n2C)cc1 | -0.0224 ± 0.56 | –
10 | CCCCN(CCCC)CCCOC(=O)c1ccc(N)cc1 | 0.561 ± 1.2 | –
11 | FC(F)(F)C(Cl)Br (stereo unspecified) | 0.397 ± 0.24 | –
12 | O=C(O)CN1C(=O)c2cccc3cccc(c23)C1=O | -0.572 ± 0.49 | –
13 | CC(=O)OCC(=O)[C@@]1(O)CC[C@H]2[C@@H]3CCC4=CC(=O)C=C[C@]4(C)[C@@]3(Cl)[C@@H](Cl)C[C@@]21C | -0.257 ± 0.54 | –
14 | C[C@@H](O)CN(CCN(C[C@@H](C)O)C[C@@H](C)O)C[C@@H](C)O | 0.503 ± 0.66 | –
15 | CC[N+](C)(C)c1cccc(O)c1 | 0.808 ± 0.24 | –
16 | CC(=O)[C@@]1(O)CC[C@H]2[C@@H]3C=C(Cl)C4=CC(=O)[C@@H]5C[C@@H]5[C@]4(C)[C@H]3CC[C@@]21C | 0.24 ± 0.47 | -0.129 ± 1.6
17 | O.O.O=C([O-])CN(CCN(CC(=O)[O-])CC(=O)O)CC(=O)O.[Na+].[Na+] | 0.428 ± 0.18 | –
18 | Nc1[nH]cnc2ncnc1-2 | 0.219 ± 0.19 | –
19 | OC(Cn1cncn1)(Cn1cncn1)c1ccc(F)cc1F | -0.421 ± 0.3 | –
20 | CCCOc1cc(N)ccc1C(=O)OCCN(CC)CC | -0.479 ± 0.087 | –
21 | NCCc1c[nH]cn1 | -0.346 ± 1.1 | –
22 | N=C(N)NC(=N)NCCc1ccccc1 | 0.092 ± 0.93 | –
23 | CN1CCC(=C2c3ccccc3C=Cc3ccccc32)CC1 | 0.573 ± 0.25 | –
24 | CN1CCN(CC/C=C2/c3ccccc3Sc3ccc(S(=O)(=O)N(C)C)cc32)CC1 | 0.401 ± 0.032 | –

Row | SMILES | mitochondrial oxygen consumption rate normalised (2 µM) | mitochondrial oxygen consumption rate normalised (10 µM)
25 | CC(C)(CO)[C@@H](O)C(=O)NCCC(=O)NCCSSCCNC(=O)CCNC(=O)[C@H](O)C(C)(C)CO | -1.04 ± 0.035 | –
26 | C[C@H]1O[C@H](O[C@H]2[C@H](O)[C@@H](O)[C@@H](O[C@H]3[C@H](O)[C@@H](O)C(O)O[C@@H]3CO)O[C@@H]2CO)[C@H](O)[C@@H](O)[C@@H]1N[C@H]1C=C(CO)[C@@H](O)[C@H](O)[C@H]1O (stereo partly specified) | 0.404 ± 0.73 | –
27 | Cc1nccnc1N1CCCCC1 | -0.204 ± 0.42 | –
28 | NNCCc1ccccc1 | -0.257 ± 0.98 | –
29 | C=C1CC[C@H](O)C/C1=C/C=C1\CCC[C@]2(C)[C@@H]([C@H](C)CCCC(C)C)CC[C@@H]12 | -0.0398 ± 0.19 | –
30 | CC(Cc1cccc(C(F)(F)F)c1)NCCOC(=O)c1ccccc1 (stereo unspecified) | 0.0628 ± 0.28 | –
31 | CCCc1cc(C(N)=S)ccn1 | 0.273 ± 0.17 | –
32 | CC(=O)S[C@@H]1CC2=CC(=O)CC[C@]2(C)[C@H]2CC[C@@]3(C)[C@@H](CC[C@@]34CCC(=O)O4)[C@H]12 | -1.11 ± 0.088 | –
33 | Oc1ccc2ccccc2c1 [beta-NAPHTHOL] | -0.745 ± 0.92 | –
34 | CC(C)CC(N)=O | 0.411 ± 0.072 | 0.337 ± 0.48
35 | CN1CCN(C2=Nc3ccccc3Oc3ccc(Cl)cc32)CC1 | -0.643 ± 0.19 | –
36 | NCc1ccccc1CC(=O)N[C@@H]1C(=O)N2C(C(=O)O)=C(CSc3nnnn3CC(=O)O)CS[C@H]12 | -0.306 ± 0.43 | –
37 | N=C(NCCCCCCNC(=N)NC(=N)Nc1ccc(Cl)cc1)NC(=N)Nc1ccc(Cl)cc1 | -3.21 ± 0.35 | –
38 | COc1c2occc2cc2ccc(=O)oc12 [Methoxsalen] | 0.78 ± 0.14 | –
39 | COc1c2occc2cc2ccc(=O)oc12 | -1.61 ± 0.69 | –
40 | N#Cc1ccc(C(c2ccc(C#N)cc2)n2cncn2)cc1 | 0.437 ± 0.059 | –
41 | N#Cc1ccc(C(c2ccc(C#N)cc2)n2cncn2)cc1 [Letrozole] | 0.658 ± 0.17 | –
42 | Clc1ccc(CCC(Cn2ccnc2)Sc2c(Cl)cccc2Cl)cc1 (stereo unspecified) | -0.904 ± 0.79 | –
43 | C[N+]1(C)CCC(OC(=O)C(O)(c2ccccc2)C2CCCC2)C1 (stereo unspecified) | -0.712 ± 1.7 | –
44 | O=C(O)c1cn(-c2ccc(F)cc2)c2cc(N3CCNCC3)c(F)cc2c1=O | -0.00615 ± 1.2 | –
45 | O=C(O)Cc1ccc(-c2ccccc2)cc1 | -0.546 ± 1.1 | –
46 | C[C@@H]1C[C@H]2[C@@H]3C[C@H](F)C4=CC(=O)C=C[C@]4(C)[C@@]3(F)[C@@H](O)C[C@]2(C)[C@@]1(O)C(=O)CO | 2.28 ± 0.38 | –
47 | CC(=O)OCC(=O)[C@@]1(O)[C@@H](C)C[C@H]2[C@@H]3CCC4=CC(=O)C=C[C@]4(C)[C@@]3(F)[C@@H](O)C[C@@]21C | -0.716 ± 0.39 | –
48 | CO[C@H]1C[C@H](O[C@H]2[C@H](C)O[C@@H](O[C@@H]3/C(C)=C/C[C@@H]4C[C@@H](C[C@]5(C=C[C@H](C)[C@@H](C6CCCCC6)O5)O4)OC(=O)[C@@H]4C=C(C)[C@@H](O)[C@H]5OC/C(=C\C=C\[C@@H]3C)[C@]54O)C[C@@H]2OC)O[C@@H](C)[C@@H]1O | 0.388 ± 0.33 | –

Laid out differently: entries from further up.
Row,SMILES,mitochondrial oxygen consumption rate normalised (2 µM),mitochondrial oxygen consumption rate normalised (10 µM)
26,C[C@H]1O[C@H](O[C@H]2[C@H](O)[C@@H](O)[C@@H](O[C@H]3[C@H](O)[C@@H](O)C(O)O[C@@H]3CO)O[C@@H]2CO)[C@H](O)[C@@H](O)[C@@H]1N[C@H]1C=C(CO)[C@@H](O)[C@H](O)[C@H]1O (stereo partly specified),0.404 ± 0.73,–
32,CC(=O)S[C@@H]1CC2=CC(=O)CC[C@]2(C)[C@H]2CC[C@@]3(C)[C@@H](CC[C@@]34CCC(=O)O4)[C@H]12,-1.11 ± 0.088,–
33,Oc1ccc2ccccc2c1 [beta-NAPHTHOL],-0.745 ± 0.92,–
34,CC(C)CC(N)=O,0.411 ± 0.072,0.337 ± 0.48
35,CN1CCN(C2=Nc3ccccc3Oc3ccc(Cl)cc32)CC1,-0.643 ± 0.19,–
36,NCc1ccccc1CC(=O)N[C@@H]1C(=O)N2C(C(=O)O)=C(CSc3nnnn3CC(=O)O)CS[C@H]12,-0.306 ± 0.43,–
42,Clc1ccc(CCC(Cn2ccnc2)Sc2c(Cl)cccc2Cl)cc1 (stereo unspecified),-0.904 ± 0.79,–
44,O=C(O)c1cn(-c2ccc(F)cc2)c2cc(N3CCNCC3)c(F)cc2c1=O,-0.00615 ± 1.2,–
46,C[C@@H]1C[C@H]2[C@@H]3C[C@H](F)C4=CC(=O)C=C[C@]4(C)[C@@]3(F)[C@@H](O)C[C@]2(C)[C@@]1(O)C(=O)CO,2.28 ± 0.38,–
47,CC(=O)OCC(=O)[C@@]1(O)[C@@H](C)C[C@H]2[C@@H]3CCC4=CC(=O)C=C[C@]4(C)[C@@]3(F)[C@@H](O)C[C@@]21C,-0.716 ± 0.39,–
48,CO[C@H]1C[C@H](O[C@H]2[C@H](C)O[C@@H](O[C@@H]3/C(C)=C/C[C@@H]4C[C@@H](C[C@]5(C=C[C@H](C)[C@@H](C6CCCCC6)O5)O4)OC(=O)[C@@H]4C=C(C)[C@@H](O)[C@H]5OC/C(=C\C=C\[C@@H]3C)[C@]54O)C[C@@H]2OC)O[C@@H](C)[C@@H]1O,0.388 ± 0.33,–
